Test results published in publication PMC9284139.
Results are given in words; binding and its absence hold for the method and conditions named. In cells and extracts the contact can be indirect. Some binding calls cover weakened binding; strength is not graded here.

Protein sequences, listed by entry. Tags and fused reporters are not part of them. Residues count along the entry.
UniProt E9Q414, residues 28-4505: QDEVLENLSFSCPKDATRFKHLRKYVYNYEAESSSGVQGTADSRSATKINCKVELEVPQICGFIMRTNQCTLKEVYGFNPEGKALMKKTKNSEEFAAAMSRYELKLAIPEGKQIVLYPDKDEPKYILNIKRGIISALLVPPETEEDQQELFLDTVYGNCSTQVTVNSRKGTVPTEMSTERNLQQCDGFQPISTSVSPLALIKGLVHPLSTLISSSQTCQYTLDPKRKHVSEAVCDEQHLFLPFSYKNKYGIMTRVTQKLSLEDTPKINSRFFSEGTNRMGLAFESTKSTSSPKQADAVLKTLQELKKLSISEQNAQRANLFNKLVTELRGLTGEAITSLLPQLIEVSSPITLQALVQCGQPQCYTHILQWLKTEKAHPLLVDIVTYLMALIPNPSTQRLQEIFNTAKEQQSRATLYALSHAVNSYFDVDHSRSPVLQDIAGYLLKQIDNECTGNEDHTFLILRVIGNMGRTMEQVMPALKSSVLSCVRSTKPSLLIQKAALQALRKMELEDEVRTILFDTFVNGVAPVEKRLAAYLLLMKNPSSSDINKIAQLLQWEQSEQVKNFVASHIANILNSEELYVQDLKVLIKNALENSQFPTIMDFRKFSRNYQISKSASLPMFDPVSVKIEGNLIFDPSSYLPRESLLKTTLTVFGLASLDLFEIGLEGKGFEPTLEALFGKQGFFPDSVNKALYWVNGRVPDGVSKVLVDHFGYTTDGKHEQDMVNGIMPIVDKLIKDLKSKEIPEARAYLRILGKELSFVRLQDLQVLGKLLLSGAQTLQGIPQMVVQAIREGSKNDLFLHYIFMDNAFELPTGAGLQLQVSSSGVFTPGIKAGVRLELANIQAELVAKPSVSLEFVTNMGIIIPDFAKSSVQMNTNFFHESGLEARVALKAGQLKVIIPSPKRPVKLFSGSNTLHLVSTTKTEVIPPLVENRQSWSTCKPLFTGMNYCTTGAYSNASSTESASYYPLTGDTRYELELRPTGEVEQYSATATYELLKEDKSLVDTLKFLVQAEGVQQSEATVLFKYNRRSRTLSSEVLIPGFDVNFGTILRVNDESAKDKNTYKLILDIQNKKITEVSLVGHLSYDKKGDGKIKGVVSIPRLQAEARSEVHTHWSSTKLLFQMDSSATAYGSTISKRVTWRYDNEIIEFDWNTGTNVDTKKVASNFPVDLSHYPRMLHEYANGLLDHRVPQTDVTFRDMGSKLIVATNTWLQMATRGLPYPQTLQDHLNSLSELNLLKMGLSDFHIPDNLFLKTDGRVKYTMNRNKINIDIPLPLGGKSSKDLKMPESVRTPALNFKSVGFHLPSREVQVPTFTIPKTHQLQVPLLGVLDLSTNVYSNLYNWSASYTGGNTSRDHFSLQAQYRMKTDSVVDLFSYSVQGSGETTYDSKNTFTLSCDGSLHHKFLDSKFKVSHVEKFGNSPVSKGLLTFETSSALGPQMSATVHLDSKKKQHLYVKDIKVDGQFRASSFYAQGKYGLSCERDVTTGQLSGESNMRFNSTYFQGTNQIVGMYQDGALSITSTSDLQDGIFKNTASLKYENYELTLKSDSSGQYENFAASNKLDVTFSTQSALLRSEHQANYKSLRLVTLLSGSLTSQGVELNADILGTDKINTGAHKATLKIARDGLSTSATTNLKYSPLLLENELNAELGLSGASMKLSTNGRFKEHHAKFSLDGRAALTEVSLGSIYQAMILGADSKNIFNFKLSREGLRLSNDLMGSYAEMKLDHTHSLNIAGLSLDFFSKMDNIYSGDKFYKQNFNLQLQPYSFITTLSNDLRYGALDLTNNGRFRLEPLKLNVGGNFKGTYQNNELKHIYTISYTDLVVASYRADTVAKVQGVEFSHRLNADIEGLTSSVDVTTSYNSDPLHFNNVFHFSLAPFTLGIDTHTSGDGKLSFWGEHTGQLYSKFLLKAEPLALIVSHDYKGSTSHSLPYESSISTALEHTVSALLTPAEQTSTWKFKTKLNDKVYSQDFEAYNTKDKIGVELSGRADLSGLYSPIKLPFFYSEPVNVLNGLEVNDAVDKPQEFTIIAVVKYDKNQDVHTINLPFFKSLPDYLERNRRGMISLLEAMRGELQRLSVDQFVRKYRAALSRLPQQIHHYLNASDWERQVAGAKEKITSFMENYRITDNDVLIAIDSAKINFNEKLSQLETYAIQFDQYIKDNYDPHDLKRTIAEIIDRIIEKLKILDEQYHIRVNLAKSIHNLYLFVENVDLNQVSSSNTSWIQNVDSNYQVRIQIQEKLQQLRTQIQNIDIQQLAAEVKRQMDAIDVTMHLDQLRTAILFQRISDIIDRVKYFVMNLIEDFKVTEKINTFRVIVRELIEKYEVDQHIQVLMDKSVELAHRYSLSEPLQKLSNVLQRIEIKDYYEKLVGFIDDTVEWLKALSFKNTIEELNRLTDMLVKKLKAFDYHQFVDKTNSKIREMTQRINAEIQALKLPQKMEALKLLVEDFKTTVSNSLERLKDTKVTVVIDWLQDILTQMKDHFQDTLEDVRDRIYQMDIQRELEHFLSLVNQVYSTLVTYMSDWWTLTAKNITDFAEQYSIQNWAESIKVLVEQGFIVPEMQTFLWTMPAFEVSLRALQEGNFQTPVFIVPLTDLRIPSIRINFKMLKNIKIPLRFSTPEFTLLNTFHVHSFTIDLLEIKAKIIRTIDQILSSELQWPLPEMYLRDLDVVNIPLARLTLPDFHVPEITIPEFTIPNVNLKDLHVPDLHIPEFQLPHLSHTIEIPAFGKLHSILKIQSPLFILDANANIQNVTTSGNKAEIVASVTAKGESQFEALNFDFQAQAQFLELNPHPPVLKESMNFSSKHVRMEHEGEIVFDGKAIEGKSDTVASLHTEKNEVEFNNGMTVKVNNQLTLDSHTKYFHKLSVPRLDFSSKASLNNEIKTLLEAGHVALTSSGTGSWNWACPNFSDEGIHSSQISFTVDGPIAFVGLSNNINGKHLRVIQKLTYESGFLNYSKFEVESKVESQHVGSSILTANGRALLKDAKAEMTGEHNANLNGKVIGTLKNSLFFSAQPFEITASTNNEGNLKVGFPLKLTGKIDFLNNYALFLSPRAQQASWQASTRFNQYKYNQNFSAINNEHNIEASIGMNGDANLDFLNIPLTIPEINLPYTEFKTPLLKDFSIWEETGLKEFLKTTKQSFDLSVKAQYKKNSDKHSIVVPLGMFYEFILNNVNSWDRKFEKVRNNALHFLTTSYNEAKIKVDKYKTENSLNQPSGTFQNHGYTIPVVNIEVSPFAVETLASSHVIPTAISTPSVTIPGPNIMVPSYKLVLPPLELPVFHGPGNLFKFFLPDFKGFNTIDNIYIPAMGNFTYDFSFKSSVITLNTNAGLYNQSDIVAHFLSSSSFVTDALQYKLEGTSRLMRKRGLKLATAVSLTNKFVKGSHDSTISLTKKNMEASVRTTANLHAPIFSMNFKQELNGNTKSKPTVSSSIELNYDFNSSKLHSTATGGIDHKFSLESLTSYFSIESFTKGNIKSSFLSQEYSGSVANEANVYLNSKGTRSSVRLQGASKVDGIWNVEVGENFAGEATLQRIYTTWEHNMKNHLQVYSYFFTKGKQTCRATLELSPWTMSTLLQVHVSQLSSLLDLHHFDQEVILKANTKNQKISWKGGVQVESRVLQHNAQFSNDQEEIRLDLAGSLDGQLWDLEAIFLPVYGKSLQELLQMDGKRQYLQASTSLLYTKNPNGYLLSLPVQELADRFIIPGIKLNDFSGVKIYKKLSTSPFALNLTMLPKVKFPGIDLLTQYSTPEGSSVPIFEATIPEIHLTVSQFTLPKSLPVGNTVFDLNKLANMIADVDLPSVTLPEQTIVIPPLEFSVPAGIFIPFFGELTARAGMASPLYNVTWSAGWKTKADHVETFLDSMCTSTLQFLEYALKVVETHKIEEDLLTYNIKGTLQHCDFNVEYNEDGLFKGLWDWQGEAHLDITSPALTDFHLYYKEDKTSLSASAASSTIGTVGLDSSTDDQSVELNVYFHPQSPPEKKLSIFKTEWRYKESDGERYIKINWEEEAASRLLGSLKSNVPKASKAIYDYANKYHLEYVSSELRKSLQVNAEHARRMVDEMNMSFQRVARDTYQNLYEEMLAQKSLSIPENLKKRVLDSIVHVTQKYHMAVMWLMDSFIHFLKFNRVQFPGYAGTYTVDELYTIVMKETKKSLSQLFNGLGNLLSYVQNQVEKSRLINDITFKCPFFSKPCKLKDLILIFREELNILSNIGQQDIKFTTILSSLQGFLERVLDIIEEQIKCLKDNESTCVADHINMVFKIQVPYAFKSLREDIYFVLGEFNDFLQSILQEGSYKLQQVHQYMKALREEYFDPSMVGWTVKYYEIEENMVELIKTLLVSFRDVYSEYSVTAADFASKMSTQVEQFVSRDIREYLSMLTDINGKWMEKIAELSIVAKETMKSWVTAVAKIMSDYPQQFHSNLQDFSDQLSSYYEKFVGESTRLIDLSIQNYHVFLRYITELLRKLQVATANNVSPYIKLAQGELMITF
UniProt P23804: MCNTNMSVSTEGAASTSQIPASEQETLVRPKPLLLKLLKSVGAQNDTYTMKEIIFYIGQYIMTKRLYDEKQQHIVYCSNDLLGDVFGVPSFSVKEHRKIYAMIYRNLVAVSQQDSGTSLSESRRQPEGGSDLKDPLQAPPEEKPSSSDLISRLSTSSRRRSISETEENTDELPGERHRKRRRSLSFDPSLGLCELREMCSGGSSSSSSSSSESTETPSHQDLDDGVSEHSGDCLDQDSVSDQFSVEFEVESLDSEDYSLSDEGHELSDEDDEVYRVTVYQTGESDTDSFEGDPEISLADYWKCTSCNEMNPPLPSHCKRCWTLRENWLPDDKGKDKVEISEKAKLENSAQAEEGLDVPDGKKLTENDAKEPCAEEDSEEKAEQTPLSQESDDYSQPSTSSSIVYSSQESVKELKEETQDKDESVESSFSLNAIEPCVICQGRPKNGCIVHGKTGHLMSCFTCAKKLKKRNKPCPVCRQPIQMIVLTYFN
UniProt Q00987: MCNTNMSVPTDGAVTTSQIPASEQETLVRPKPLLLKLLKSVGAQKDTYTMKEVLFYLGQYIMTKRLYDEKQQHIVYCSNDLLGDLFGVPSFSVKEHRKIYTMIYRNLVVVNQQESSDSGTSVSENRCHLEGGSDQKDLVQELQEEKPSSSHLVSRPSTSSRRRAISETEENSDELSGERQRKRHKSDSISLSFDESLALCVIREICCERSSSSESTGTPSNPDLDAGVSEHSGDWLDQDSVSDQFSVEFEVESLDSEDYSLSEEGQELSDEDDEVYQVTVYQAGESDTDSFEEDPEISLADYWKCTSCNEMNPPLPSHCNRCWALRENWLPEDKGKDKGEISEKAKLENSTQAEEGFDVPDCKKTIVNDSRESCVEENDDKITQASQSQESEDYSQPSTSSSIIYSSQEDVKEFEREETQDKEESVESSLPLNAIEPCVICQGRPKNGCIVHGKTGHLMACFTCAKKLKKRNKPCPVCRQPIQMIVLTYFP

Key:
ApoB-1-624 (human) = target: T1, ApoB-1-624 (human) (UniProt P04114); assay: co-IP; HEK293 cells co-transfected with Myc-tagged MDM2 and FLAG-tagged truncated ApoB or its mutants; lysates on anti-FLAG agarose beads at 4 °C for 2 h; immunoblot of FLAG and Myc
T1 sequence: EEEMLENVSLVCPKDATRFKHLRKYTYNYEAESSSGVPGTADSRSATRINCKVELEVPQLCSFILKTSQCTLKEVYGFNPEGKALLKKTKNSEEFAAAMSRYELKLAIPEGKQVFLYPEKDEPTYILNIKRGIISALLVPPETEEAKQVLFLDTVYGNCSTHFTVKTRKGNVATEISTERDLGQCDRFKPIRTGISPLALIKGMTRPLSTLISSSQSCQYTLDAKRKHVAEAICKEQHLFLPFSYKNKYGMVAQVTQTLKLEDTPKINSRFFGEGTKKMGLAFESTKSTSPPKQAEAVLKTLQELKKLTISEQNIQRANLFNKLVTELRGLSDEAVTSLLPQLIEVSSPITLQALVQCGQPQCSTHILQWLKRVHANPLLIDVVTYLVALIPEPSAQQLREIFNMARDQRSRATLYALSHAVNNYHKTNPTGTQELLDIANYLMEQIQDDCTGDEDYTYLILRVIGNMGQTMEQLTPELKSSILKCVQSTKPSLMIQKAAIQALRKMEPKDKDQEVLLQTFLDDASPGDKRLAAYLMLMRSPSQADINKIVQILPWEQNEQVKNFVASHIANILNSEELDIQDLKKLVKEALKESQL

ApoB-3419-4018 (human) = target: T2, ApoB-3419-4018 (human) (UniProt P04114); assay: as above
T2 sequence: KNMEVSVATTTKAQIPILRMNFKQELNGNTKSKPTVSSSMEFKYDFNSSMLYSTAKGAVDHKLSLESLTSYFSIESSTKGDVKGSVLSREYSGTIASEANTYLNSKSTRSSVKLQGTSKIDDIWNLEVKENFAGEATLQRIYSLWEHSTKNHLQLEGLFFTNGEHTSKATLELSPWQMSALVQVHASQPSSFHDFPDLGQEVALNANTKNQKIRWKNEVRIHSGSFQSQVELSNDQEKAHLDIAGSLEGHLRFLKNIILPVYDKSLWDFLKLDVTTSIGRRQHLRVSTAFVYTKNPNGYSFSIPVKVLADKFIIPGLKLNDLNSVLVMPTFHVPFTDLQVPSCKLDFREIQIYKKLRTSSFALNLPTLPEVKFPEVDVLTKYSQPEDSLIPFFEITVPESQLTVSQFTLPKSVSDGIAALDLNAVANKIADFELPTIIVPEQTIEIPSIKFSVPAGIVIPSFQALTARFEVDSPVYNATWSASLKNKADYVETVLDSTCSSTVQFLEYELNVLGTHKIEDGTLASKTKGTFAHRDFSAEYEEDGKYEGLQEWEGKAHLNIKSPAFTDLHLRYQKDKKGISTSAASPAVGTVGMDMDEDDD

[1] = target: Apolipoprotein B (ApoB), endogenous in HepG2 cells (human (endogenous in HepG2)) (UniProt P04114); assay: co-IP; HepG2 lysate (50 mM Tris-HCl pH 7.5, 250 mM NaCl, 1% NP-40, 1 mM EDTA, 1 mM DTT); ApoB antibody or rabbit IgG at 4 °C overnight, Protein A agarose, immunoblot of MDM2; cells untreated or treated with oleic acid (0.4 mM) or stearic acid (0.4 mM), which reduced the interaction
[2] = target: Apolipoprotein B (ApoB), endogenous in HepG2 cells (human (endogenous in HepG2)) (UniProt P04114); assay: co-IP; HepG2 cells treated with Nutlin-3a (10 × 10^-6 M) before lysis; co-immunoprecipitation of ApoB and MDM2 as for untreated cells
[3] = target: Apolipoprotein B (ApoB), endogenous in mouse liver and primary hepatocytes (mouse (endogenous in C57BL/6J liver and primary hepatocytes)) (UniProt E9Q414); assay: co-IP; C57BL/6J mouse liver lysate (50 mM Tris-HCl pH 7.5, 250 mM NaCl, 1% NP-40, 1 mM EDTA, 1 mM DTT); ApoB antibody or rabbit IgG at 4 °C overnight, Protein A agarose, immunoblot of MDM2
[4] = target: Apolipoprotein B (ApoB), endogenous in mouse liver and primary hepatocytes (mouse (endogenous in C57BL/6J liver and primary hepatocytes)) (UniProt E9Q414); assay: co-IP; mouse primary hepatocyte lysate (50 mM Tris-HCl pH 7.5, 250 mM NaCl, 1% NP-40, 1 mM EDTA, 1 mM DTT); ApoB antibody or rabbit IgG at 4 °C overnight, Protein A agarose, immunoblot of MDM2

In the case of “Myc-tagged MDM2 (from UniProt P23804 1-489)”, the binding (ApoB-1-624 (human)) is reported as “binds” and the binding (ApoB-3419-4018 (human)) is reported as “binds”.

With “murine double minute 2 (MDM2), endogenous in HepG2 cells (from UniProt Q00987 1-491)” the binding [1] was “binds” and the binding [2] was “no binding (condition: with Nutlin-3a (10 × 10^-6 M))”.

“murine double minute 2 (MDM2), endogenous in mouse liver and primary hepatocytes (from UniProt P23804 1-489)” was tested, and the binding [3] was “binds” and the binding [4] was “binds”.
